{"source": "PubChem BioAssay AID1259308 (NCATS, 2017)", "aim": "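Knock-downs that increase output of a recombinant reporter protein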 (primary screen)", "cells": "human HEK293 embryonic kidney cells stably expressing firefly luciferase (HEK-CMV-Luc2-Hygro)", "knock-down reagent": "single siRNA against human genes, 0.8 pmol siRNA per well", "timing": "72 h", "detection": "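Reporter luminescence and viable-cell signal on separate replicate plates, given as percent of non-targeting control and median/MAD z-scores, plus per-cell luciferase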", "scale": "total luciferase, z-score: higher = more reporter protein produced", "hit rule": "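Active when the median/MAD z-score for overall luciferase is greater than 3; a gene was taken forward for validation with new siRNAs if at least two of its three siRNAs passed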", "calls": "active = raised luciferase; inactive = no rise", "note": "The whole screen tested about 59,000 reagents; below is a random part of them. Of all reagents, about 1,510 (2.6%) were called active. 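Calls use total luciferase alone and ignore viability, so some active siRNAs may act by altering cell number.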 A number with no mark means an inactive call. Reagents against one gene are numbered here. Not all columns of the deposit are shown. Reagent sequences are not shown."}
{"target gene":"DNAJA1","reagent no.":1,"total luciferase, z-score":-1.19}
{"target gene":"DNAJA1","reagent no.":2,"total luciferase, z-score":-0.268}
{"target gene":"DNAJA1","reagent no.":3,"total luciferase, z-score":0.868}
{"target gene":"ZC2HC1B","reagent no.":1,"total luciferase, z-score":0.692}
{"target gene":"ZC2HC1B","reagent no.":2,"total luciferase, z-score":2.23}
{"target gene":"ZC2HC1B","reagent no.":3,"total luciferase, z-score":-2.58}
{"target gene":"MUC5B","reagent no.":1,"total luciferase, z-score":-1.14}
{"target gene":"MUC5B","reagent no.":2,"total luciferase, z-score":-0.0638}
{"target gene":"MUC5B","reagent no.":3,"total luciferase, z-score":1.13}
{"target gene":"SOWAHB","reagent no.":1,"total luciferase, z-score":1.92}
{"target gene":"SOWAHB","reagent no.":2,"total luciferase, z-score":0.402}
{"target gene":"SOWAHB","reagent no.":3,"total luciferase, z-score":1.09}
{"target gene":"UBQLN1","reagent no.":1,"total luciferase, z-score":0.755}
{"target gene":"UBQLN1","reagent no.":2,"total luciferase, z-score":0.303}
{"target gene":"UBQLN1","reagent no.":3,"total luciferase, z-score":-0.0987}
{"target gene":"ALDH1B1","reagent no.":1,"total luciferase, z-score":1.38}
{"target gene":"ALDH1B1","reagent no.":2,"total luciferase, z-score":-1.18}
{"target gene":"ALDH1B1","reagent no.":3,"total luciferase, z-score":0.138}
{"target gene":"HSPH1","reagent no.":1,"total luciferase, z-score":0.147}
{"target gene":"HSPH1","reagent no.":2,"total luciferase, z-score":1.1}
{"target gene":"HSPH1","reagent no.":3,"total luciferase, z-score":-0.134}
{"target gene":"MT2A","reagent no.":1,"total luciferase, z-score":2.11}
{"target gene":"MT2A","reagent no.":2,"total luciferase, z-score":-0.0623}
{"target gene":"MT2A","reagent no.":3,"total luciferase, z-score":1.76}
{"target gene":"SULT4A1","reagent no.":1,"total luciferase, z-score":-0.43}
{"target gene":"SULT4A1","reagent no.":2,"total luciferase, z-score":-0.945}
{"target gene":"SULT4A1","reagent no.":3,"total luciferase, z-score":0.0902}
{"target gene":"ANOS1","reagent no.":1,"total luciferase, z-score":0.239}
{"target gene":"ANOS1","reagent no.":2,"total luciferase, z-score":0.284}
{"target gene":"ANOS1","reagent no.":3,"total luciferase, z-score":-0.813}
{"target gene":"DPEP1","reagent no.":1,"total luciferase, z-score":-0.465}
{"target gene":"DPEP1","reagent no.":2,"total luciferase, z-score":-1.01}
{"target gene":"DPEP1","reagent no.":3,"total luciferase, z-score":"3.19 (active)"}

Part of the list above, set out differently.
UBQLN1 #2: total luciferase, z-score = 0.303
UBQLN1 #3: total luciferase, z-score = -0.0987
